# Taken from: PubChem BioAssay AID1224829 (NIAID, 2016)
# Purpose: 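Genes needed for LPS-driven NF-kappaB p65 nuclear entry in mouse macrophages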 (follow-up of hits)
# Cells: mouse RAW264.7 G9 macrophage reporter cells
# Reagents: single siRNA against mouse genes, 100 nM
# Timing: 2 days of siRNA knock-down, then 40 min of LPS before fixing
# Challenge: LPS (Salmonella minnesota R595) at 10 ng/ml
# Detection: 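Imaging of GFP-p65 after 40 min of LPS; nuclear over perinuclear ring intensity ratio, scaled to plate median and non-targeting control wells, given as z-score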
# Scale: p65 translocation z-score and gene median z-score, per vendor: higher = more nuclear NF-kappaB p65 after LPS
# Call rule: 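An siRNA is called active when the mean z-score of its two replicates is above 2 or below -2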
# Meaning of the calls: active = changed p65 translocation (either direction); inactive = no clear change
# Here is an unselected part of about 3,800 reagents. 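Calls cover raised and lowered translocation; gene median uses one vendor's three siRNAs; qiagen siRNAs acted more weakly than ambion siRNAs.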 Entries without a mark were called inactive. Reagents against one gene are numbered here.
Target gene,reagent no.,siRNA vendor or control pool,"p65 translocation z-score, replicate mean","p65 translocation z-score, replicate 1","p65 translocation z-score, replicate 2","gene median z-score, per vendor"
Neurod1 (neurogenic differentiation 1),1,ambion single siRNA,-2.42 (active),-2.42,,-0.0444
Neurod1 (neurogenic differentiation 1),2,ambion single siRNA,1.93,2.81,1.05,-0.0444
Neurod1 (neurogenic differentiation 1),3,ambion single siRNA,-1.14,-1.14,,-0.0444
Neurod1 (neurogenic differentiation 1),4,qiagen single siRNA,1.15,1.5,0.799,-1.54
Neurod1 (neurogenic differentiation 1),5,qiagen single siRNA,-1.54,-1.16,-1.93,-1.54
Neurod1 (neurogenic differentiation 1),6,qiagen single siRNA,-7.44 (active),-5.08,-9.8,-1.54
"Tnfrsf22 (tumor necrosis factor receptor superfamily, member 22)",1,ambion single siRNA,-0.659,-0.357,-0.961,-0.8
"Tnfrsf22 (tumor necrosis factor receptor superfamily, member 22)",2,ambion single siRNA,-0.142,0.356,-0.639,-0.8
"Tnfrsf22 (tumor necrosis factor receptor superfamily, member 22)",3,ambion single siRNA,-3.26 (active),-3.09,-3.43,-0.8
"Tnfrsf22 (tumor necrosis factor receptor superfamily, member 22)",4,qiagen single siRNA,0.322,-0.966,1.61,0.613
"Tnfrsf22 (tumor necrosis factor receptor superfamily, member 22)",5,qiagen single siRNA,0.792,-0.964,2.55,0.613
"Tnfrsf22 (tumor necrosis factor receptor superfamily, member 22)",6,qiagen single siRNA,0.613,-0.134,1.36,0.613

Part of the list above, limited to “gene median z-score, per vendor”.
Neurod1 (neurogenic differentiation 1) #3, siRNA vendor or control pool ambion single siRNA = -0.0444
Neurod1 (neurogenic differentiation 1) #4, siRNA vendor or control pool qiagen single siRNA = -1.54

The listing continues.
Target gene,reagent no.,siRNA vendor or control pool,"p65 translocation z-score, replicate mean","p65 translocation z-score, replicate 1","p65 translocation z-score, replicate 2","gene median z-score, per vendor"
Polr1c (polymerase (RNA) I polypeptide C),1,ambion single siRNA,-4.02 (active),-4.9,-3.14,-3.76
Polr1c (polymerase (RNA) I polypeptide C),2,ambion single siRNA,-4.64 (active),-4.89,-4.38,-3.76
Polr1c (polymerase (RNA) I polypeptide C),3,ambion single siRNA,-2.66 (active),-2.47,-2.84,-3.76
Polr1c (polymerase (RNA) I polypeptide C),4,qiagen single siRNA,1.59,0.0436,3.13,0.551
Polr1c (polymerase (RNA) I polypeptide C),5,qiagen single siRNA,1.25,0.149,2.35,0.551
Polr1c (polymerase (RNA) I polypeptide C),6,qiagen single siRNA,0.497,0.0426,0.952,0.551
Or2h1 (olfactory receptor family 2 subfamily H member 1),1,ambion single siRNA,-2.27 (active),-2.5,-2.03,-0.824
Or2h1 (olfactory receptor family 2 subfamily H member 1),2,ambion single siRNA,-0.824,-0.808,-0.841,-0.824
Or2h1 (olfactory receptor family 2 subfamily H member 1),3,ambion single siRNA,-0.0325,-0.276,0.211,-0.824
Or2h1 (olfactory receptor family 2 subfamily H member 1),4,qiagen single siRNA,0.0743,0.227,-0.0783,0.242
Or2h1 (olfactory receptor family 2 subfamily H member 1),5,qiagen single siRNA,-0.525,-1.31,0.258,0.242
Or2h1 (olfactory receptor family 2 subfamily H member 1),6,qiagen single siRNA,0.923,0.339,1.51,0.242
